Results deposited as PubChem BioAssay AID504764 (Drosophila RNAi Screening Center, 2011)
The screen tested about 22,000 reagents; below is a random part of those with a known target gene and a result. Over the whole deposit, 403 (1.9%) are marked active. 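Unnormalised raw counts per well; ratio z-scores behind the hit calls and whether each hit raises or lowers signal are not deposited.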 Entries without a mark were called inactive. Reagent sequences are not shown. Not given: the amount of reagent.

Screen: 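Knock-downs that raise or lower a Notch target reporter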 (primary screen)
Cells: Drosophila Kc167 cells
Knock-down reagent: long dsRNA against Drosophila genes
Duration: about 5 days (4 days dsRNA, then 24 h after transfection)
Challenge: transfection of constitutively active membrane-tethered Notch lacking the extracellular domain, read 24 h later
Read-out: 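Light from a Notch-responsive E(spl)m3 luciferase reporter under active Notch, with control-promoter and no-Notch reporter wells to normalise; raw counts from paired wells a and b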
Scale: induced reporter light, run 1, well a and induced reporter light, run 1, well b: higher = more light from the Notch target reporter with active Notch; control promoter light, run 1, well a and control promoter light, run 1, well b: higher = more light from the viral control promoter (cell number, transfection, viability); uninduced reporter light, run 1, well a: higher = more light from the Notch target reporter without active Notch
Call rule: 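Hit if the duplicate-averaged log2 ratio of induced to control-promoter light gives a plate-wise z beyond ±2, or induced to uninduced beyond ±1.8; weak-control or discordant-duplicate wells dropped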
Calls: active = modifier hit (raised or lowered Notch signal); inactive = not a hit

Gene | dsRNA | induced reporter light, run 1, well a | induced reporter light, run 1, well b | control promoter light, run 1, well a | control promoter light, run 1, well b | uninduced reporter light, run 1, well a
Ctr1C | DRSC15089 | 1.29e5 | 1.75e5 | 2.05e5 | 2.03e5 | 12465
toy | DRSC17222 | 1.74e5 | 1.79e5 | 2.51e5 | 2.72e5 | 14380
LysRS | DRSC17824 | 20478 | 20115 | 29505 | 26650 | 1580
CG12506 | DRSC00347 | 99685 | 1.61e5 | 1.51e5 | 96155 | 8490
CG15764 | DRSC18070 | 1.13e5 | 1.49e5 | 2.82e5 | 2.33e5 | 10750
Rs1 | DRSC05945 | 79785 | 71565 | 68575 | 63510 | 5335
CG7785 | DRSC16311 | 1.56e5 | 1.76e5 | 1.91e5 | 1.91e5 | 12538
Cdc50 | DRSC20224 | 86700 | 85495 | 84500 | 71510 | 10625
CG34447 | DRSC00741 | 1.27e5 | 1.39e5 | 1.07e5 | 86105 | 9140
CG14837 | DRSC10207 | 1.57e5 | 1.13e5 | 1.26e5 | 1.11e5 | 7060

Laid out differently: results already given.
| Gene | dsRNA | induced reporter light, run 1, well a | induced reporter light, run 1, well b | control promoter light, run 1, well a | control promoter light, run 1, well b | uninduced reporter light, run 1, well a |
| --- | --- | --- | --- | --- | --- | --- |
| Ctr1C | DRSC15089 | 1.29e5 | 1.75e5 | 2.05e5 | 2.03e5 | 12465 |
| toy | DRSC17222 | 1.74e5 | 1.79e5 | 2.51e5 | 2.72e5 | 14380 |
| LysRS | DRSC17824 | 20478 | 20115 | 29505 | 26650 | 1580 |

Additional records:
Gene | dsRNA | induced reporter light, run 1, well a | induced reporter light, run 1, well b | control promoter light, run 1, well a | control promoter light, run 1, well b | uninduced reporter light, run 1, well a
Opa1 | DRSC07191 | 1.52e5 | 1.24e5 | 1.22e5 | 1.14e5 | 10375
CG11037 | DRSC11631 | 1.33e5 | 1.33e5 | 1.27e5 | 1.60e5 | 9820
CG8673 | DRSC03105 | 1.41e5 | 1.87e5 | 1.06e5 | 1.49e5 | 21888
Ranbp16 | DRSC20160 | 89840 | 1.01e5 | 1.31e5 | 87495 | 11850
Idgf1 | DRSC03349 | 1.76e5 | 1.59e5 | 1.55e5 | 1.66e5 | 14475
CG13603 | DRSC14606 | 1.57e5 | 1.75e5 | 2.30e5 | 2.59e5 | 14530
dally | DRSC08954 | 2.15e5 | 1.73e5 | 2.23e5 | 2.04e5 | 13042
dally | DRSC11338 | 1.59e5 | 1.23e5 | 1.03e5 | 50560 | 10350
MED15 | DRSC00267 | 20465 | 19995 | 13740 | 12978 | 6225
CG18641 | DRSC00527 | 1.34e5 | 1.43e5 | 1.28e5 | 95040 | 8828
